In PMC12101500, “Mechanism of D-type cyclin recognition by the AMBRA1 E3 ligase receptor” (Science Advances, 2025):
No constants are given. Whether binding was seen depends on the method and setting. For some assays here: Binding seen in cells or lysates may run through a third protein. Some binding calls cover weakened binding; strength is not graded here. Blank lines part the entries; values can stand above or below the molecule they belong to.

Sequences of proteins named here, by UniProt entry; tags and fusion partners are left off. A change or cut given only in a name is not applied to a line headed by its entry. A line that says so, or that is headed by a name, gives the form on record, which may keep a tag or linker.
CDK4EE (P11802, form named): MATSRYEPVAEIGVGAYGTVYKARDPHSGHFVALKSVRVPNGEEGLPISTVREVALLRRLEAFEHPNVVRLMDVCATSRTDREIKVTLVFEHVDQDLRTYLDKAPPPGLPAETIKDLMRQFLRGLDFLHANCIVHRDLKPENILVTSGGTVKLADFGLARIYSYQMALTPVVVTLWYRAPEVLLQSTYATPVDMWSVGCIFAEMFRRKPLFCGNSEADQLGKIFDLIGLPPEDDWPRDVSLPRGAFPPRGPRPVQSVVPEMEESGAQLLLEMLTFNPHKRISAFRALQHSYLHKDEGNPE
MBP-AMBRA1^WD40 (Q9C0C7, form named): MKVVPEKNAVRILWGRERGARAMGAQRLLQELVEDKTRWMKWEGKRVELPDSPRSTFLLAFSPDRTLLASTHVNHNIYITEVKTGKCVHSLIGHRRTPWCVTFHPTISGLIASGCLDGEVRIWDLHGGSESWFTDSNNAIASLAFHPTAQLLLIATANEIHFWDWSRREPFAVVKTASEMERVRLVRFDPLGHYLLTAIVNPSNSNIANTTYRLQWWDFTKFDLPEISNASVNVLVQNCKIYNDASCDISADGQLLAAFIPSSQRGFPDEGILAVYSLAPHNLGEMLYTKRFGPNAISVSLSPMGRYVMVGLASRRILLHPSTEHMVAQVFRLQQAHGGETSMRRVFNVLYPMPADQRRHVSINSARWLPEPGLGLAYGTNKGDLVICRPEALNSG
UniProt P30279: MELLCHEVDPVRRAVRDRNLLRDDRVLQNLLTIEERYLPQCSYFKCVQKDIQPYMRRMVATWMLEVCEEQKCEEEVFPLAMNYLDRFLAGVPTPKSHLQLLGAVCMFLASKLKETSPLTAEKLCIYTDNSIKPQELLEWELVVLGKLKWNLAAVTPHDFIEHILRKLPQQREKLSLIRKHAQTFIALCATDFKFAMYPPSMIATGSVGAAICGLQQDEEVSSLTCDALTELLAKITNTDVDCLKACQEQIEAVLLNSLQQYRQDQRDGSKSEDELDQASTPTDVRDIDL
UniProt P24385: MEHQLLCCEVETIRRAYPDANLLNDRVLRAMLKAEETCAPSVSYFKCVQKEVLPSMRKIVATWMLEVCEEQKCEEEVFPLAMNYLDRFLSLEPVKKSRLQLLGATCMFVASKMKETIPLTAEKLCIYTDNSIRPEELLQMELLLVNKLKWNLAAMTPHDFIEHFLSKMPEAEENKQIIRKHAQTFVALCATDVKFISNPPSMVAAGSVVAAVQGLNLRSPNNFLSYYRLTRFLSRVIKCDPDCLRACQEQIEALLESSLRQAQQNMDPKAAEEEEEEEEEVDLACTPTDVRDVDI

Legend:
CDK4EE (human) = CDK4EE (human) (UniProt P11802); assay: tandem affinity co-purification; TSF–cyclin D1/D2/D3 (WT and mutants) co-expressed with GST-CDK4EE in Expi293F; GST beads from the lysate, TEV digestion, Strep-tactin resin; SDS-PAGE
MBP-AMBRA1^WD40 (human) = MBP-AMBRA1^WD40 (human) (UniProt Q9C0C7); assay: pull-down; MBP resin, bait MBP-AMBRA1^WD40; lysate of Expi293F cells cotransfected with TSF–D-type cyclin, GST-CDK4EE, His6-DDB1 and MBP-AMBRA1^WD40; eluted with 10 mM maltose; SDS-PAGE and Western blot

Molecule: TSF–cyclin D2 (full-length) (from UniProt P30279 1-289)
- binding (MBP-AMBRA1^WD40 (human)): binds

B1: TSF–cyclin D3 T283A (protein, UniProt P30281 1-292)
chain: MELLCCEGTRHAPRAGPDPRLLGDQRVLQSLLRLEERYVPRASYFQCVQREIKPHMRKMLAYWMLEVCEEQRCEEEVFPLAMNYLDRYLSCVPTRKAQLQLLGAVCMLLASKLRETTPLTIEKLCIYTDHAVSPRQLRDWEVLVLGKLKWDLAAVIAHDFLAFILHRLSLPRDRQALVKKHAQTFLALCATDYTFAMYPPSMIATGSIGAAVQGLGACSMSGDELTELLAGITGTEVDCLRACQEQIEAALRESLREASQTSSSPAPKAPRGSSSQGPSQTSAPTDVTAIHL
- binding (CDK4EE (human)): binds

Second part, the molecule after the results:

- binding (CDK4EE (human)): binds
Molecule: TSF–cyclin D1 T286A (from UniProt P24385 1-295)

- binding (CDK4EE (human)): binds
- binding (MBP-AMBRA1^WD40 (human)): binds
Molecule: TSF–cyclin D3 (full-length) (from UniProt P30281 1-292)
